Measurements from US12589160B2, “Peptide-derived therapeutics targeting KDM5C for the treatment of cancer” (NUVOBIO CORPORATION, priority 2019, dated 2026).
At least one peptide structure holds a part that was inferred or is arguable (an end, a ring closure or a residue). Where a SMILES comes first, the peptide text is derived from it.

Key:
KDM5C = target: T1, KDM5C (Homo sapiens, UniProt P41229); test: In vitro lysine demethylase activity inhibition assay (Succinate-Glo JmjC, H3K4me3 substrate peptide); assay type: biochemical; details: dose-response
T1 construct: made in house; host or cells: SF9 insect cells (baculovirus), vector pFB-CT10HF-LIC, construct JARID1CA-c022
T1 sequence (P41229 1-765): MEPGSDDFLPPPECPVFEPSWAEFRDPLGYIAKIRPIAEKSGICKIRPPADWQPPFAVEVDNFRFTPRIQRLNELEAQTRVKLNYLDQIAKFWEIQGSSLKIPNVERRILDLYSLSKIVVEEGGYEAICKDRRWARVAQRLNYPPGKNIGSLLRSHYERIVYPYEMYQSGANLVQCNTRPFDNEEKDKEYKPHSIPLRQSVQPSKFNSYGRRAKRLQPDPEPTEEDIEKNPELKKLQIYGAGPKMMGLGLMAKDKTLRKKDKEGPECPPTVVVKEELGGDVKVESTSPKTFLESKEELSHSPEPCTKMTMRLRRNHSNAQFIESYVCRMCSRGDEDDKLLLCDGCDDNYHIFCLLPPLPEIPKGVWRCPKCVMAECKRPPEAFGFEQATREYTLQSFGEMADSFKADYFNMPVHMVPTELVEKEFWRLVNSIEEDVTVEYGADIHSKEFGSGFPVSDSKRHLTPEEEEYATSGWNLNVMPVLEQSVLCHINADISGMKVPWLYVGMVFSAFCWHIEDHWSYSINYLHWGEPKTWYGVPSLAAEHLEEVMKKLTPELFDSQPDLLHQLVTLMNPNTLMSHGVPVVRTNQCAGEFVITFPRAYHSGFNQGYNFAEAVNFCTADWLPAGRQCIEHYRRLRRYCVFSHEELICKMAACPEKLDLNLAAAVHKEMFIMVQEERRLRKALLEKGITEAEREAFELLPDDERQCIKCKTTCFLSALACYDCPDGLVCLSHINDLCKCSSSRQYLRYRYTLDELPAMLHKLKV

KDM5A/B/C = test: In vitro target specificity within the KDM5 family (recombinant KDM5 demethylation of H3K4me3 peptide); assay type: biochemical

SMILES: C[C@@H](O)[C@H](N)C(=O)N[C@@H](CCC(=O)O)C(=O)N[C@@H](CC(=O)O)C(=O)N[C@@H](CO)C(=O)N[C@@H](CCCCN)C(=O)N[C@H](C(=O)N[C@@H](Cc1c[nH]cn1)C(=O)N[C@@H](Cc1c[nH]cn1)C(=O)N[C@@H](Cc1c[nH]cn1)C(=O)O)[C@@H](C)O [EP4, T E D S K T H H H] (H-TEDSKTHHH-OH)
- inhibitory activity on KDM5C demethylation, rank among EP1-EP20 (KDM5C): top-most inhibitory activity
- in vitro specificity in a panel of KDM5 paralogs (KDM5A/B/C): specificity towards the inhibition of KDM5C activity
